Values of other authors as cited in PMC9146934 (Membranes, 2022).

Experiments:
Conditions in all cases: read-out: EC50 for GABA; cited from earlier work
A. pisum RDL1bd = system: A. pisum RDL1bd
A. pisum RDL1ad = system: A. pisum RDL1ad
A. pisum RDL2b = system: A. pisum RDL2b

For `NCCCC(=O)O` [GABA, γ-aminobutyric acid], the EC50 (A. pisum RDL1bd) is listed as 51 ± 9.1 µM, the EC50 (A. pisum RDL1ad) is listed as 23 ± 2 µM and the EC50 (A. pisum RDL2b) is listed as 28 ± 5.4 µM.
